Laboratory results: PubChem BioAssay AID504764 (Drosophila RNAi Screening Center, 2011)
In all, the deposit lists about 22,000 reagents; this is an unselected part of those with a known target gene and a result. In the full data, 403 (1.9%) were called active. 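Unnormalised raw counts per well; ratio z-scores behind the hit calls and whether each hit raises or lowers signal are not deposited.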 A number with no mark means an inactive call. A plus sign joins genes that one reagent is predicted to hit. The record does not give: the amount of reagent.

Screen: 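Genes whose knock-down alters Notch-dependent transcription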 (primary screen)
System: Drosophila Kc167 cells
Knock-down reagent: long dsRNA against Drosophila genes
Timing: about 5 days (4 days dsRNA, then 24 h after transfection)
Treatment: transfection of constitutively active membrane-tethered Notch lacking the extracellular domain, read 24 h later
Measured: 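Firefly luciferase from an E(spl)m3 reporter with active Notch, plus control-promoter and uninduced reporter wells for normalisation; unnormalised counts, duplicate wells a and b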
Direction: induced reporter light, run 1, well a and induced reporter light, run 1, well b: higher = more light from the Notch target reporter with active Notch; control promoter light, run 1, well a and control promoter light, run 1, well b: higher = more light from the viral control promoter (cell number, transfection, viability); uninduced reporter light, run 1, well a: higher = more light from the Notch target reporter without active Notch
Hit rule: 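Hit if the duplicate-averaged log2 ratio of induced to control-promoter light gives a plate-wise z beyond ±2, or induced to uninduced beyond ±1.8; weak-control or discordant-duplicate wells dropped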
Meaning of the calls: active = modifier hit (raised or lowered Notch signal); inactive = not a hit

| Gene | dsRNA | induced reporter light, run 1, well a | induced reporter light, run 1, well b | control promoter light, run 1, well a | control promoter light, run 1, well b | uninduced reporter light, run 1, well a |
| --- | --- | --- | --- | --- | --- | --- |
| CG9812 | DRSC04566 | 1.53e5 | 1.47e5 | 1.59e5 | 1.16e5 | 11050 |
| galene | DRSC08640 | 1.40e5 | 1.48e5 | 2.00e5 | 2.06e5 | 9545 |
| galene | DRSC08641 | 1.03e5 | 85405 | 1.78e5 | 1.48e5 | 6080 |
| Obp56h (Odorant-binding protein 56h) | DRSC06433 | 27390 | 26275 | 41360 | 33840 | 4342 |
| sNPF-R (short neuropeptide F receptor) | DRSC10836 | 1.55e5 | 98995 | 1.09e5 | 1.11e5 | 10120 |
| CG9313 | DRSC04540 | 1.12e5 | 1.22e5 | 85070 | 87955 | 8495 |
| a (arc) | DRSC04667 | 3720 | 3865 | 2715 | 2540 | 845 |
| a (arc) | DRSC04668 | 25950 | 29245 | 26360 | 19605 | 1435 |
| br (broad) | DRSC17691 | 57340 | 67815 | 74545 | 82035 | 5000 |
| br (broad) | DRSC17789 | 1.36e5 | 1.10e5 | 1.69e5 | 2.20e5 | 8800 |
| br (broad) | DRSC18743 | 37420 | 40455 | 39735 | 55670 | 5055 |
| br (broad) | DRSC18744 | 55510 | 56750 | 52410 | 44695 | 8788 |
| CG5767 | DRSC06953 | 50190 | 43645 | 49950 | 37185 | 2832 |
| CG42397 | DRSC09147 | 1.86e5 | 2.19e5 | 2.08e5 | 1.95e5 | 11585 |
| trv (trivet) | DRSC13846 | 1.96e5 | 1.87e5 | 1.60e5 | 1.57e5 | 16220 |
| trv (trivet) | DRSC14559 | 40285 | 52955 | 38935 | 42545 | 6120 |
| trv (trivet) | DRSC14560 | 1.41e5 | 1.58e5 | 1.64e5 | 1.59e5 | 12040 |
| trv (trivet) | DRSC14561 | 1.24e5 | 1.09e5 | 1.97e5 | 1.77e5 | 10600 |
| Pde11 (Phosphodiesterase 11) | DRSC02028 | 2.11e5 | 1.68e5 | 3.85e5 | 3.39e5 | 12655 |
| Pde11 (Phosphodiesterase 11) | DRSC02460 | 40250 | 23750 | 41540 | 43155 | 4005 |
| Gr59e (Gustatory receptor 59e) | DRSC04276 | 2.13e5 | 2.22e5 | 2.44e5 | 2.03e5 | 17905 |
| pinta | DRSC14698 | 1.59e5 | 1.42e5 | 1.21e5 | 1.48e5 | 15125 |
| Regnase-1 (Regnase 1) | DRSC14278 | 1.19e5 | 1.23e5 | 1.45e5 | 1.61e5 | 11540 |
| barc (barricade) | DRSC11792 | 1.27e5 | 1.19e5 | 76755 | 92985 | 8240 |
| Ugt37A2 (UDP-glycosyltransferase family 37 member A2) | DRSC15861 | 69890 | 52645 | 80090 | 61610 | 3965 |
| CG8833 | DRSC11050 | 93010 | 1.21e5 | 67970 | 78185 | 8075 |
| c12.1 | DRSC18750 | 1.10e5 | 1.06e5 | 1.00e5 | 1.08e5 | 8675 |
| CG40198 | DRSC21068 | 62585 | 71920 | 83435 | 95825 | 6110 |
| milt (milton) | DRSC00965 | 1.10e5 | 79115 | 1.35e5 | 1.24e5 | 7510 |
| milt (milton) | DRSC00966 | 83670 | 99645 | 1.16e5 | 1.26e5 | 7640 |
| milt (milton) | DRSC02281 | 1.46e5 | 1.40e5 | 1.78e5 | 1.75e5 | 11878 |
| CG3277 | DRSC00588 | 1.74e5 | 1.24e5 | 1.85e5 | 1.37e5 | 11795 |
| CG6153 | DRSC02935 | 2.22e5 | 1.95e5 | 1.88e5 | 2.10e5 | 15305 |
| Ssl (Suppressor of Stellate-like) | DRSC04657 | 1.83e5 | 1.47e5 | 2.09e5 | 1.78e5 | 12565 |
| CG3862 | DRSC00631 | 2.29e5 | 2.23e5 | 2.33e5 | 2.50e5 | 18450 |
| Rab11 | DRSC16809 | 1.94e5 | 1.95e5 | 1.96e5 | 2.10e5 | 14400 |

Ordered by “induced reporter light, run 1, well a” (highest first): some entries from above
| Gene | dsRNA | induced reporter light, run 1, well a | induced reporter light, run 1, well b | control promoter light, run 1, well a | control promoter light, run 1, well b | uninduced reporter light, run 1, well a |
| --- | --- | --- | --- | --- | --- | --- |
| sNPF-R (short neuropeptide F receptor) | DRSC10836 | 1.55e5 | 98995 | 1.09e5 | 1.11e5 | 10120 |
| CG9313 | DRSC04540 | 1.12e5 | 1.22e5 | 85070 | 87955 | 8495 |
| Obp56h (Odorant-binding protein 56h) | DRSC06433 | 27390 | 26275 | 41360 | 33840 | 4342 |
| a (arc) | DRSC04667 | 3720 | 3865 | 2715 | 2540 | 845 |

The results go on:
| Gene | dsRNA | induced reporter light, run 1, well a | induced reporter light, run 1, well b | control promoter light, run 1, well a | control promoter light, run 1, well b | uninduced reporter light, run 1, well a |
| --- | --- | --- | --- | --- | --- | --- |
| CG7706 | DRSC16295 | 2.61e5 | 3.46e5 | 3.05e5 | 4.17e5 | 21420 |
| Acbp5 (Acyl-CoA binding protein 5) | DRSC10548 | 1.65e5 | 1.32e5 | 1.44e5 | 1.22e5 | 7615 |
| grp + CG31782 (retired record) | DRSC03541 | 2.37e5 | 2.42e5 | 2.64e5 | 2.18e5 | 17360 |
| TTLL12 (Tubulin tyrosine ligase-like 12) | DRSC06555 | 2.65e5 | 2.32e5 | 2.51e5 | 2.84e5 | 16850 |
| Oct-TyrR (Octopamine-Tyramine receptor) | DRSC11883 | 1.07e5 | 1.38e5 | 1.23e5 | 1.25e5 | 8065 |
| gprs | DRSC06761 | 1.81e5 | 87025 | 97355 | 1.17e5 | 12410 |
| Gr64c (Gustatory receptor 64c) | DRSC08445 | 68505 | 81885 | 1.44e5 | 1.17e5 | 5605 |
| Tb (Tubby) | DRSC15815 | 1.82e5 | 1.70e5 | 1.92e5 | 1.83e5 | 16825 |
| CG6262 | DRSC06971 | 30925 | 21440 | 24995 | 23870 | 6520 |
| CG11658 | DRSC09852 | 1.61e5 | 1.24e5 | 2.03e5 | 1.39e5 | 6760 |
| Vps11 (Vacuolar protein sorting 11) | DRSC11909 | 2.59e5 | 1.95e5 | 2.41e5 | 2.64e5 | 17695 |
| CG15822 | DRSC08482 | 1.18e5 | 1.25e5 | 2.06e5 | 1.59e5 | 8495 |
| CG15822 | DRSC08483 | 1.20e5 | 1.32e5 | 1.76e5 | 2.09e5 | 4932 |
| CG31798 | DRSC01702 | 85825 | 65455 | 62970 | 64000 | 6975 |
| bchs (blue cheese) | DRSC03126 | 1.76e5 | 1.31e5 | 1.69e5 | 1.91e5 | 10030 |
| prod (proliferation disrupter) | DRSC07667 | 1.30e5 | 93155 | 1.94e5 | 1.86e5 | 9435 |
| CG14689 | DRSC14912 | 79610 | 80745 | 84495 | 65050 | 6005 |
| CG33255 (retired record) + hpRNA:CR32205 | DRSC09610 | 2.19e5 | 2.19e5 | 2.45e5 | 2.45e5 | 18220 |
| CG33255 (retired record) + hpRNA:CR32205 | DRSC09611 | 2.56e5 | 2.03e5 | 3.05e5 | 2.66e5 | 20600 |
| gukh (GUK-holder) | DRSC14768 | 2.90e5 | 2.66e5 | 3.12e5 | 2.83e5 | 17620 |
| gukh (GUK-holder) | DRSC15806 | 1.97e5 | 1.62e5 | 1.86e5 | 1.86e5 | 12332 |
| gukh (GUK-holder) | DRSC15944 | 1.82e5 | 1.80e5 | 2.19e5 | 2.45e5 | 14032 |
| Drip | DRSC07405 | 97575 | 1.13e5 | 1.40e5 | 1.54e5 | 10255 |
| CG9743 | DRSC16552 | 1.50e5 | 1.41e5 | 1.97e5 | 1.63e5 | 10988 |
| Idh3g | DRSC15699 | 1.46e5 | 1.40e5 | 2.07e5 | 1.87e5 | 10915 |
| Polr2L (RNA polymerase II, I and III subunit L) | DRSC14630 | 1.93e5 | 1.54e5 | 2.26e5 | 2.19e5 | 15130 |
| CG5704 | DRSC08572 | 93195 | 92480 | 1.54e5 | 1.92e5 | 8955 |
| CG14756 | DRSC06491 | 2.04e5 | 2.12e5 | 2.41e5 | 2.22e5 | 17688 |
